From the supplement of paper PMC6411743
± gives the standard deviation of the averaged measurements. This is a selection; strong and weak results do not stand in their true shares.

By UniProt entry, the sequences of proteins in these tests, tags left out. Where a name states a change or a piece, a line headed by the entry shows the natural chain unless it says otherwise.
UniProt P00813: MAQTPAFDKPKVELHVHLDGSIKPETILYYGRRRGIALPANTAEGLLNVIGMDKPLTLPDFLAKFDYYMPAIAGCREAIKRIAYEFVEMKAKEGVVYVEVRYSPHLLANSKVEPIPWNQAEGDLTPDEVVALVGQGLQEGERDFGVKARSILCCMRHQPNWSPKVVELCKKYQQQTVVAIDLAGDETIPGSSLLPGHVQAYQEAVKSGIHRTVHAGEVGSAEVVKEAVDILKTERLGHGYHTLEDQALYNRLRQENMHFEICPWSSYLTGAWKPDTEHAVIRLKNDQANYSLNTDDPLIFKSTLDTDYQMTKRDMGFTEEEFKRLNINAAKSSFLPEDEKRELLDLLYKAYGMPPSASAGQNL
UniProt P09525: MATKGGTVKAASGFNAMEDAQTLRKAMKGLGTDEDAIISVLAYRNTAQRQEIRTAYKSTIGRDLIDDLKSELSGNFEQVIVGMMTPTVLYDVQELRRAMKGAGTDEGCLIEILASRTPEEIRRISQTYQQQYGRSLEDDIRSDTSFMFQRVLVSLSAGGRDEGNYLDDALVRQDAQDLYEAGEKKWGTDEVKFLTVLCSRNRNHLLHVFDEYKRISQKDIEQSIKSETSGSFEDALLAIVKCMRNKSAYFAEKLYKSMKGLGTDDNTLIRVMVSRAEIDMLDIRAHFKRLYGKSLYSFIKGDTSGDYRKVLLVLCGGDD
UniProt O95835: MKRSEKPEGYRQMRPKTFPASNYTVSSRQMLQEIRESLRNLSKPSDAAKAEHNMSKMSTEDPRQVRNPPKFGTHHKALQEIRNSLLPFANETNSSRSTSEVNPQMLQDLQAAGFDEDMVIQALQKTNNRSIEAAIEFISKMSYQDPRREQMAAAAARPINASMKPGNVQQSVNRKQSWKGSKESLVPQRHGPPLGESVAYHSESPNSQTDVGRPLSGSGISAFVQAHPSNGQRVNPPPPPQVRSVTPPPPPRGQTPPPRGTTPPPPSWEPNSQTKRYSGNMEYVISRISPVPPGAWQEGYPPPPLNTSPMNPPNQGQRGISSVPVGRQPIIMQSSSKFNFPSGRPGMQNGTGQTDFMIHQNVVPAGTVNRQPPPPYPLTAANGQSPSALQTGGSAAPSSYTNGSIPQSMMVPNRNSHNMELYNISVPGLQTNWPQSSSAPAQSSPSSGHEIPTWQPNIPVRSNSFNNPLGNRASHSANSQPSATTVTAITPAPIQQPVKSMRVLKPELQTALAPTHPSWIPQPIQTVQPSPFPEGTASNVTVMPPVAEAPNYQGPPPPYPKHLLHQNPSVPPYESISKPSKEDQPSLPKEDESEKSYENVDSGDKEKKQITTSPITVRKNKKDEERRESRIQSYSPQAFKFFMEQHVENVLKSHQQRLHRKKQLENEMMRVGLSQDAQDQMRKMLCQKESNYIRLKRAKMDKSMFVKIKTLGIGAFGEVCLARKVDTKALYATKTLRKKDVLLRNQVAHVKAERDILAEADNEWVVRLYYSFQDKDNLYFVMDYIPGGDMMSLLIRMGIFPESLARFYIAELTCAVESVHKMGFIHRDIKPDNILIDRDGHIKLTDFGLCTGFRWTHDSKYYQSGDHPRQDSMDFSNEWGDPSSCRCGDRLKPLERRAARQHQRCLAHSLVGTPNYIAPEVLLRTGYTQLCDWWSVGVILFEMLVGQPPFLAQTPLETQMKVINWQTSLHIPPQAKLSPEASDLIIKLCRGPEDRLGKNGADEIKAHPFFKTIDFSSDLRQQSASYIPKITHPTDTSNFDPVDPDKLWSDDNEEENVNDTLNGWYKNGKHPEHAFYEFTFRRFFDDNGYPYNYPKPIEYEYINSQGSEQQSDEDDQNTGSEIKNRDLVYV
UniProt P15374: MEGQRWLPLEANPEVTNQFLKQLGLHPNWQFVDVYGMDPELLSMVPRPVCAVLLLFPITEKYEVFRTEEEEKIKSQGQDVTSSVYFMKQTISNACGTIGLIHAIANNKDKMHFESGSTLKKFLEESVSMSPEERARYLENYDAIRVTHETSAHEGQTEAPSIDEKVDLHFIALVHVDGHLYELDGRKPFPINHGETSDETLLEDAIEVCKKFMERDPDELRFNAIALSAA
UniProt P10109: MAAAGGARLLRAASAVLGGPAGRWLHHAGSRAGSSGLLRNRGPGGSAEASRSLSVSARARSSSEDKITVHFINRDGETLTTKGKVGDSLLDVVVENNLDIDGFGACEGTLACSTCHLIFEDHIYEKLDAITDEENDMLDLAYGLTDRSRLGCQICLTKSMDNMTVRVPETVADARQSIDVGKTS
UniProt P14151: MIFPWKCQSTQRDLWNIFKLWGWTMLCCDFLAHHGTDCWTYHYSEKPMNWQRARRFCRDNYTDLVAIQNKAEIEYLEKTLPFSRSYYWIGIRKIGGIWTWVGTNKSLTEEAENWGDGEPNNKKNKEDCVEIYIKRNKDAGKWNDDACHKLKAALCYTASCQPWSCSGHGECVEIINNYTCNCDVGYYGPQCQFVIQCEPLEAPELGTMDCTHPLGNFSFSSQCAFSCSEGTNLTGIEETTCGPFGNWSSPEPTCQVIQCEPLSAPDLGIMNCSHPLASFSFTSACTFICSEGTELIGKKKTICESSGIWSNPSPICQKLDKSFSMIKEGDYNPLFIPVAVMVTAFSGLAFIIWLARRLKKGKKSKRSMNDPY
UniProt P04424, whole entry: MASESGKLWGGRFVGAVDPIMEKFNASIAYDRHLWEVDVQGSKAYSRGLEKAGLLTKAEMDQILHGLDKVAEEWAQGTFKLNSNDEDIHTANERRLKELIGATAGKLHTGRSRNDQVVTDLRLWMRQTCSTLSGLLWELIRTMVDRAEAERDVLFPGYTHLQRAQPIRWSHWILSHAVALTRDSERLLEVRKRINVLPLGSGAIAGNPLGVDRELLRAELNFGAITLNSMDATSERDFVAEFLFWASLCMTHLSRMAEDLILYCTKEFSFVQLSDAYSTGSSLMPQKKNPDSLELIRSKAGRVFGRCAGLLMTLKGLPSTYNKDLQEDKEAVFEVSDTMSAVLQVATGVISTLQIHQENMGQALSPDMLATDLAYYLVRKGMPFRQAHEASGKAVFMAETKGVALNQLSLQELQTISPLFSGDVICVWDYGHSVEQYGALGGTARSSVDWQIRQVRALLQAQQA
UniProt P14621: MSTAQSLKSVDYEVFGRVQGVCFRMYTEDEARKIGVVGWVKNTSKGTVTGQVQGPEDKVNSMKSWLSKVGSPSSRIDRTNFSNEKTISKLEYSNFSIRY
UniProt P05362: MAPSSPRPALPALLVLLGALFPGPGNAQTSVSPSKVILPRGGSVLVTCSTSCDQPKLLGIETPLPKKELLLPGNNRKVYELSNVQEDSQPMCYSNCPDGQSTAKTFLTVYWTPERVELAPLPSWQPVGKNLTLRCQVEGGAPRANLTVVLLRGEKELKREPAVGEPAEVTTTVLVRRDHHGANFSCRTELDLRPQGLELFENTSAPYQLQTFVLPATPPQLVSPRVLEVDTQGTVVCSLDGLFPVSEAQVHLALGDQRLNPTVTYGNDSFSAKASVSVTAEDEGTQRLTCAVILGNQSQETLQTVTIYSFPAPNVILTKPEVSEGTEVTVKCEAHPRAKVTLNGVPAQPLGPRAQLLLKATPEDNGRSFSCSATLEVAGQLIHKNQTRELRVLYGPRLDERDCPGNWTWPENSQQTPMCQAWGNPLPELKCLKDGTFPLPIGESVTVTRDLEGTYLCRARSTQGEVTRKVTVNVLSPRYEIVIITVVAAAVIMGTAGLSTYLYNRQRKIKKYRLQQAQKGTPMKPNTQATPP
UniProt P12277: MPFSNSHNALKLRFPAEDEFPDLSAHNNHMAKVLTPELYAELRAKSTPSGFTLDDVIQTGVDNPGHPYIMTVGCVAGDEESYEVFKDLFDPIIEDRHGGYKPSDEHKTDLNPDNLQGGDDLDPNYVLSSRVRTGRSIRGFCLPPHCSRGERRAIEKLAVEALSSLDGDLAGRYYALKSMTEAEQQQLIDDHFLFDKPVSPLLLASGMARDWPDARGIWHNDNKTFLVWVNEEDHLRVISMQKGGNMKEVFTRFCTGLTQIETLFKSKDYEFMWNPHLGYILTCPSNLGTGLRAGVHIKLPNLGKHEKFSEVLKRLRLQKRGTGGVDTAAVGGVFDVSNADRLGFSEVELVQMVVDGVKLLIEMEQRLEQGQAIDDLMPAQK
UniProt O96017, whole entry: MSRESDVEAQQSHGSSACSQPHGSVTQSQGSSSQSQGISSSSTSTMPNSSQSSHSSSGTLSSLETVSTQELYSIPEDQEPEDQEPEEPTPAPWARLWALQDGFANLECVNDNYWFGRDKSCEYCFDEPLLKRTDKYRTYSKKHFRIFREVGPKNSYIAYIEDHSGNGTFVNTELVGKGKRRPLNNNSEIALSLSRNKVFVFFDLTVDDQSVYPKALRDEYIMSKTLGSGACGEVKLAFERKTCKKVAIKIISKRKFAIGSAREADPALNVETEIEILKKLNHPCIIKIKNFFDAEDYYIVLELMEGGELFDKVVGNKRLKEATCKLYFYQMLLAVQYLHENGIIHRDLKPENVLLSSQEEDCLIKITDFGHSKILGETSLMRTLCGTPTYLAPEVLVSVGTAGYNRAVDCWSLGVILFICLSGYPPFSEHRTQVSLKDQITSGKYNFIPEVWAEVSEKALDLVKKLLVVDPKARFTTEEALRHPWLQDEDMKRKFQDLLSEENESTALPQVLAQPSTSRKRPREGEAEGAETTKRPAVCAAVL
UniProt P14735, whole entry: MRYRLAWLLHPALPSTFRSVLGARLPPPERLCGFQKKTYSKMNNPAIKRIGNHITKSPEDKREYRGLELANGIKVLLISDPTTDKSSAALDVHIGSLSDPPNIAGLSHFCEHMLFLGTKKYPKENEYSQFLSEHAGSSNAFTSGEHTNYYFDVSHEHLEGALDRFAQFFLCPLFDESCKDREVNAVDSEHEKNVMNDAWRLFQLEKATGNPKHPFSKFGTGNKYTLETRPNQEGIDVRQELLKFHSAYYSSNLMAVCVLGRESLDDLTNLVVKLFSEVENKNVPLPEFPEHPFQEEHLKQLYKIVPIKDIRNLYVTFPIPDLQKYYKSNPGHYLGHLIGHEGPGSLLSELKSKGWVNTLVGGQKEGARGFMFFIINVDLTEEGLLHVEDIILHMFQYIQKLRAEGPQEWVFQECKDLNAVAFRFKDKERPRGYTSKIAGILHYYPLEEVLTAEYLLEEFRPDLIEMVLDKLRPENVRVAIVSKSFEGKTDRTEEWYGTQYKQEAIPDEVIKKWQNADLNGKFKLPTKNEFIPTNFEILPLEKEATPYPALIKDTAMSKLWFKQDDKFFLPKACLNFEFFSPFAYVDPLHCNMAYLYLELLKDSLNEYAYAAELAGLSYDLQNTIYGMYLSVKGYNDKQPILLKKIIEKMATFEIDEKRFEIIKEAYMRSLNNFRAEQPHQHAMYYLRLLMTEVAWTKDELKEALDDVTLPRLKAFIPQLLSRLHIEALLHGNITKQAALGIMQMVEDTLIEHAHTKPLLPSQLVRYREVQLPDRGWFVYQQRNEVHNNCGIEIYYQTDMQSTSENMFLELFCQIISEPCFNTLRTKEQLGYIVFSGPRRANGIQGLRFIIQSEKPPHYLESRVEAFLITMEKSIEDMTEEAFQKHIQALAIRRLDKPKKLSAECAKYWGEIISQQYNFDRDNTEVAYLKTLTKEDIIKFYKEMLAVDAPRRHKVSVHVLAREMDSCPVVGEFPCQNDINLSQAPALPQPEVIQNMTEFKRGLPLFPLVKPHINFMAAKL
UniProt O96011: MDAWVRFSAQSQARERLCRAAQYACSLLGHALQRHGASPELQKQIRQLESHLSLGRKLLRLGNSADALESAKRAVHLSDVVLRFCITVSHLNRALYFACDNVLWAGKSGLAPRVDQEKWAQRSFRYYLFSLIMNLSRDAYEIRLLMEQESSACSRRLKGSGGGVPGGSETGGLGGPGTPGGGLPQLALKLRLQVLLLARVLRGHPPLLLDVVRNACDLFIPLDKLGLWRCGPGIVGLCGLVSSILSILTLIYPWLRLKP
UniProt P14174: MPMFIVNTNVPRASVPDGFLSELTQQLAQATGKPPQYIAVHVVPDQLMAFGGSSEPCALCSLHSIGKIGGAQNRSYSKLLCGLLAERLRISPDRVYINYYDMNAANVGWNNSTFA
UniProt P15170, whole entry: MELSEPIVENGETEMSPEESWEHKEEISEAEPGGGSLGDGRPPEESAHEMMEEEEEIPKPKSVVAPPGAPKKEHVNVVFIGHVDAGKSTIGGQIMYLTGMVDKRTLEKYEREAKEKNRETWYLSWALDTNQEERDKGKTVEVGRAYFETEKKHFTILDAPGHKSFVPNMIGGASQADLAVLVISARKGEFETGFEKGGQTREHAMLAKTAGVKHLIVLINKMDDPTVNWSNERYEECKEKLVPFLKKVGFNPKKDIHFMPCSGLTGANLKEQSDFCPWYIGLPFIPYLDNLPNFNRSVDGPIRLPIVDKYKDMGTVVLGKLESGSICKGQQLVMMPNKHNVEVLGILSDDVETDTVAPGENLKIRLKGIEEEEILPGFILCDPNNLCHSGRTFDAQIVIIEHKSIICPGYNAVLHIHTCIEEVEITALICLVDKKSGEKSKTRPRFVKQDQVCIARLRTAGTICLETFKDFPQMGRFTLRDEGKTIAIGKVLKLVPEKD

Compound: Nc1ncnc2c1ncn2[C@@H]1O[C@H](COP(=O)(O)OP(=O)(O)OP(=O)(O)O)[C@@H](O)[C@H]1O [adenosine triphosphate]
Experiment: NP40-soluble protein abundance relative to vehicle (solubility fold change) (ratio); higher = more soluble protein in presence of ATP
In short: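 Eight concentrations, 0.1 to 10 mM, were tested on Jurkat crude lysate for 10 min at room temperature and then 3 min at 37 °C, in three independent experiments. The lysate was solubilised with 0.8% NP40 and benzonase, ultracentrifuged, and the supernatant TMT-labelled for LC-MS/MS. Each value is the fold change against the detergent-processed vehicle in its own replicate, from vsn-normalised intensities.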

Target	NP40-soluble protein abundance (concentration: 1mM)	NP40-soluble protein abundance (concentration: 2mM)	NP40-soluble protein abundance (concentration: 4mM)	NP40-soluble protein abundance (concentration: 6mM)	NP40-soluble protein abundance (concentration: 8mM)	NP40-soluble protein abundance (concentration: 10mM)
ADA (UniProt P00813)	0.989 ± 0.19	0.894 ± 0.19	0.93 ± 0.15	0.9 ± 0.2	0.975 ± 0.11	0.806 ± 0.15
UniProt P09525 and related entries	0.931 ± 0.038	0.961 ± 0.039	0.922 ± 0.048	0.906 ± 0.1	0.938 ± 0.057	0.896 ± 0.053
LATS1 (UniProt O95835)	1.14 ± 0.036	1.16 ± 0.07	1.08 ± 0.073	1.15 ± 0.1	1.07 ± 0.15	1.16 ± 0.086
UCHL3 (UniProt P15374)	1.08 ± 0.011	1.06 ± 0.057	1.02 ± 0.049	1.06 ± 0.027	1.02 ± 0.085	0.979 ± 0.055
FDX1 (UniProt P10109)	0.91 ± 0.061	0.954 ± 0.05	0.884 ± 0.051	0.977 ± 0.056	0.867 ± 0.017	0.865 ± 0.023
UniProt P14151 and related entries	0.976 ± 0.058	0.9443 ± 0.0048	0.945 ± 0.03	1.04 ± 0.046	0.951 ± 0.016	0.887 ± 0.042
UniProt P04424 and related entries	1 ± 0.028	0.994 ± 0.04	0.971 ± 0.02	0.963 ± 0.025	0.948 ± 0.036	0.948 ± 0.046
ACYP2 (UniProt P14621)	0.904 ± 0.03	0.934 ± 0.075	0.895 ± 0.05	0.885 ± 0.039	0.858 ± 0.036	0.896 ± 0.049
UniProt P05362 and related entries	0.946 ± 0.078	0.935 ± 0.098	0.973 ± 0.028	0.981 ± 0.0033	0.934 ± 0.057	0.9368 ± 0.0052
GLUD1 (UniProt P00367)	0.955 ± 0.051	0.911 ± 0.055	0.9129 ± 0.0047	0.898 ± 0.048	0.9395 ± 0.0084	0.917 ± 0.037
CKB (UniProt P12277)	0.932 ± 0.12	1.003 ± 0.0013	1.04 ± 0.1	1.01 ± 0.036	0.996 ± 0.019	1 ± 0.055
UniProt O96017 and related entries	1.03 ± 0.12	1.03 ± 0.095	1.01 ± 0.083	0.988 ± 0.13	0.997 ± 0.099	0.998 ± 0.074
EEF2 (UniProt P13639)	0.949 ± 0.034	0.92 ± 0.047	0.889 ± 0.021	0.894 ± 0.069	0.925 ± 0.041	0.921 ± 0.062
UniProt P14735 and related entries	1.04 ± 0.12	1.01 ± 0.1	0.993 ± 0.078	0.93 ± 0.13	1.01 ± 0.05	0.985 ± 0.064
UniProt O96011 and related entries	0.966 ± 0.086	0.927 ± 0.033	0.981 ± 0.039	0.912 ± 0.066	0.9571 ± 0.0058	0.97 ± 0.056
MIF (UniProt P14174)	0.962 ± 0.013	0.97 ± 0.015	0.967 ± 0.015	0.901 ± 0.035	0.938 ± 0.036	0.909 ± 0.046
UniProt P15170-2|P15170-3	0.995 ± 0.03	0.976 ± 0.031	0.94 ± 0.032	0.993 ± 0.026	0.937 ± 0.029	0.954 ± 0.046

Random excerpt: two entries already listed
Target	NP40-soluble protein abundance (concentration: 1mM)	NP40-soluble protein abundance (concentration: 2mM)	NP40-soluble protein abundance (concentration: 4mM)	NP40-soluble protein abundance (concentration: 6mM)	NP40-soluble protein abundance (concentration: 8mM)	NP40-soluble protein abundance (concentration: 10mM)
UniProt P14735 and related entries	1.04 ± 0.12	1.01 ± 0.1	0.993 ± 0.078	0.93 ± 0.13	1.01 ± 0.05	0.985 ± 0.064
UniProt P14151 and related entries	0.976 ± 0.058	0.9443 ± 0.0048	0.945 ± 0.03	1.04 ± 0.046	0.951 ± 0.016	0.887 ± 0.042
